Article PMC4999519

Molecular target: T1, Perilipin 5 (endogenous) (mouse (endogenous in C2C12, mouse BAT, brown adipocyte line)) (UniProt Q8BVZ1)
T1 sequence: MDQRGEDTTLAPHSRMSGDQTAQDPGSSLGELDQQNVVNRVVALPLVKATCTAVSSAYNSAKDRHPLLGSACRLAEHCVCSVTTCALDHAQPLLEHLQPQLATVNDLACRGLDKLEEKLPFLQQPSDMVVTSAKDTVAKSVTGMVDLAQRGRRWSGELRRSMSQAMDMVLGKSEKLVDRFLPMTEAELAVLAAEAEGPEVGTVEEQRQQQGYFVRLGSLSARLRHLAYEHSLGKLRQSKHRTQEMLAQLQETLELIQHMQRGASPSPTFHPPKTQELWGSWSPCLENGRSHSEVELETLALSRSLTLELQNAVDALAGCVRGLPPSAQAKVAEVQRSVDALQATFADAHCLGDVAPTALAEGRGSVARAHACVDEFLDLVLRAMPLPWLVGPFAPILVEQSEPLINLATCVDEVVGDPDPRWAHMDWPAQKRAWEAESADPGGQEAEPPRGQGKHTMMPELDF
Assay: co-IP; IP of Perilipin 5, western blot for PGC-1α, histone H3, Creb and actin (Supplementary Fig. 11); cells not given

actin
binding: no binding

No constants are given. Whether binding was seen depends on the method and setting. In cells and extracts the contact can be indirect.
